Results deposited as PubChem BioAssay AID504808 (Drosophila RNAi Screening Center, 2011)
Screen: 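Fly genes required to hold E2F transcription in check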 (primary screen). Cells: Drosophila S2 cells. Reagent: long dsRNA against Drosophila genes. Measurement: 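Dual luciferase plate measurements; E2F-specific signal taken as firefly over Renilla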. Reading the numbers: E2F firefly: higher = more E2F reporter activity; Renilla normaliser: higher = more normaliser reporter signal. Rule for the call: 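a knock-down counted as active when the firefly/Renilla E2F signal rose above 50%, a threshold chosen arbitrarily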.
The screen tested about 21,000 reagents; shown is an unselected part of those that have a named target and a result. Over the whole deposit, 18 (0.084%) are marked active. 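Raw counts without plate normalisation, one of two replicates; the ratio scores behind the calls were not deposited.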 Names joined by + are all predicted targets of the reagent. Not given: the amount of reagent, the time to read-out.

The opening 6 entries, ahead of the listing:
gene	DRSC id	E2F firefly, rep 1	Renilla normaliser, rep 1	Outcome
Arfrp1 (ADP-ribosylation factor related protein 1)	DRSC18417	7848	764	inactive
CG14606	DRSC12550	1.37e5	6330	inactive
CG8870	DRSC16452	1.01e5	5583	inactive
CG32050 (retired record)	DRSC10173	1.24e5	6452	inactive
mRpS29 (mitochondrial ribosomal protein S29)	DRSC04398	76415	3077	inactive
Akh (Adipokinetic hormone)	DRSC08138	98840	4119	inactive

Results, from the first entry:
gene	DRSC id	E2F firefly, rep 1	Renilla normaliser, rep 1	Outcome
Arfrp1 (ADP-ribosylation factor related protein 1)	DRSC18417	7848	764	inactive
CG14606	DRSC12550	1.37e5	6330	inactive
CG8870	DRSC16452	1.01e5	5583	inactive
CG32050 (retired record)	DRSC10173	1.24e5	6452	inactive
mRpS29 (mitochondrial ribosomal protein S29)	DRSC04398	76415	3077	inactive
Akh (Adipokinetic hormone)	DRSC08138	98840	4119	inactive
foi (fear-of-intimacy)	DRSC10719	81297	3722	inactive
CG15599	DRSC19668	1.85e5	5499	inactive
CG14154	DRSC10156	1.17e5	4702	inactive
Dys (Dystrophin)	DRSC13360	86282	2935	inactive
Dys (Dystrophin)	DRSC13364	89105	2578	inactive
Dys (Dystrophin)	DRSC15260	1.29e5	7166	inactive
Dys (Dystrophin)	DRSC16218	1.37e5	7459	inactive
Dys (Dystrophin)	DRSC16219	1.32e5	8032	inactive
Dys (Dystrophin)	DRSC16220	1.49e5	8723	inactive
Dys (Dystrophin)	DRSC16935	1.32e5	7235	inactive
pit (pitchoune)	DRSC17025	1.33e5	8870	inactive
CG14245	DRSC14740	1.09e5	5851	inactive
LBR (Lamin B receptor)	DRSC04298	91922	3281	inactive
VAChT + ChAT	DRSC13312	80604	2472	inactive
CG34169	DRSC01579	1.45e5	6338	inactive
Surf1 (Surfeit 1)	DRSC11295	85629	3833	inactive
Surf1 (Surfeit 1)	DRSC11394	66308	3450	inactive
Roc1a (Regulator of cullins 1a)	DRSC18483	95794	7080	inactive
S (Star)	DRSC00785	1.42e5	5812	inactive
Vti1a (Vesicle transport through interaction with t-SNAREs 1a)	DRSC08563	81263	3927	inactive
msd1 (mitotic spindle density 1)	DRSC08383	1.10e5	4275	inactive
CG9578	DRSC20694	1.44e5	5825	inactive
Sec71 (Secretory 71)	DRSC01893	93319	4049	inactive
Jon65Aii (Jonah 65Aii)	DRSC10665	78013	3267	inactive
CG32023	DRSC08946	1.41e5	5056	inactive
EMC3 (ER membrane protein complex subunit 3)	DRSC02989	1.51e5	4855	inactive
Toll-4	DRSC03458	1.72e5	5599	inactive
CG34008	DRSC13428	89497	2853	inactive
CG11034	DRSC02121	1.77e5	5284	inactive
CG11034	DRSC02122	1.47e5	4705	inactive
Cyp6a14 (retired record)	DRSC07376	1.41e5	5224	inactive
dtn (detonator)	DRSC17939	63476	4049	inactive
sau (sauron)	DRSC00694	91681	4116	inactive
Fum2 (Fumarase 2)	DRSC18345	92208	5479	inactive
hoe2 (hoepel2)	DRSC00459	1.48e5	4744	inactive
CG31142	DRSC13647	84448	2723	inactive
CG14551	DRSC14894	1.02e5	5537	inactive
CG14423	DRSC17920	1.06e5	5935	inactive
eEF1alpha1 (eukaryotic translation elongation factor 1 alpha 1)	DRSC07421	1.05e5	4620	inactive
Cont (Contactin)	DRSC12149	79441	3405	inactive
fru (fruitless)	DRSC16951	61767	5070	inactive
fru (fruitless)	DRSC16952	1.09e5	2085	inactive
fru (fruitless)	DRSC16953	1.47e5	7301	inactive
Cdk1 (Cyclin-dependent kinase 1)	DRSC03504	45279	210	inactive
CG7634	DRSC11843	1.48e5	7713	inactive
CG12990	DRSC19510	2.33e5	7953	inactive
ewg (erect wing)	DRSC18773	1.18e5	5956	inactive
CG34033	DRSC05190	1.48e5	6251	inactive
CG14195	DRSC19550	1.27e5	281	inactive
CG4020	DRSC18337	1.09e5	5869	inactive
CG34408	DRSC17733	8098	712	inactive
IP3K2 (Inositol 1,4,5-triphosphate kinase 2)	DRSC19500	1.30e5	6622	inactive
IP3K2 (Inositol 1,4,5-triphosphate kinase 2)	DRSC19747	1.41e5	7231	inactive
CG5767	DRSC06953	1.43e5	5132	inactive
Gr21a (Gustatory receptor 21a)	DRSC00366	1.77e5	6338	inactive
CG13117	DRSC02215	1.28e5	4748	inactive
CG7579	DRSC10885	1.53e5	6984	inactive
CG15880	DRSC00474	1.70e5	6228	inactive
CG14635	DRSC17945	53708	3520	inactive
Ccdc58 + CG34116	DRSC10105	1.34e5	7031	inactive
twy (twitchy)	DRSC10562	1.27e5	7106	inactive
CG2082	DRSC12125	64640	3164	inactive
CG5412	DRSC15796	68853	4347	inactive
CenG1A (Centaurin gamma 1A)	DRSC02538	96585	4314	inactive
CenG1A (Centaurin gamma 1A)	DRSC03505	1.02e5	4298	inactive
CenG1A (Centaurin gamma 1A)	DRSC03506	98155	4290	inactive
Esyt2 (Extended synaptotagmin-like protein 2)	DRSC16082	74535	3692	inactive
Ir76b (Ionotropic receptor 76b)	DRSC10831	1.22e5	6801	inactive
CG32111 (retired record)	DRSC09203	1.40e5	2164	inactive
idc (identity crisis)	DRSC15680	62059	3981	inactive
inaF-B + inaF-D + inaF-C + 1 more	DRSC20342	68822	4617	inactive
Ns1 (Nucleostemin 1)	DRSC15529	80362	6001	inactive
CG8401	DRSC07165	66832	3871	inactive
CG17300	DRSC10260	1.19e5	7167	inactive
CG14543	DRSC14887	86852	6047	inactive
Lrp4 (LDL receptor related protein 4)	DRSC20118	8035	796	inactive
CG34460	DRSC06974	1.58e5	5596	inactive
CG1631	DRSC20535	1.33e5	6185	inactive
